Source: paper PMC5732184, “Arabidopsis Basic Helix-Loop-Helix 34 (bHLH34) Is Involved in Glucose Signaling through Binding to a GAGA Cis-Element”

Key:
MBP = assay: EMSA; details: 10 mM Tris-HCl pH 7.5, 50 mM KCl, 1 mM EDTA, 1 mM DTT, 2.5% glycerol, 1 ug poly(dI-dC), 100 ng protein, 0.3 pmol DNA in 20 uL; 25 C 20 min; 5% native PAGE in TBE at 4 C; recombinant protein; label: 32P
[1] = target: T1, His-bHLH34 (Arabidopsis thaliana) (UniProt Q9LTC7); assay: EMSA; details: 10 mM Tris-HCl pH 7.5, 50 mM KCl, 1 mM EDTA, 1 mM DTT, 2.5% glycerol, 1 ug poly(dI-dC), 100 ng protein, 0.3 pmol DNA in 20 uL; 25 C 20 min; 5% native PAGE in TBE at 4 C; recombinant protein; residues 1-320; protein details: His tag (pET300/NT-DEST); label: 32P
T1 sequence (looked up): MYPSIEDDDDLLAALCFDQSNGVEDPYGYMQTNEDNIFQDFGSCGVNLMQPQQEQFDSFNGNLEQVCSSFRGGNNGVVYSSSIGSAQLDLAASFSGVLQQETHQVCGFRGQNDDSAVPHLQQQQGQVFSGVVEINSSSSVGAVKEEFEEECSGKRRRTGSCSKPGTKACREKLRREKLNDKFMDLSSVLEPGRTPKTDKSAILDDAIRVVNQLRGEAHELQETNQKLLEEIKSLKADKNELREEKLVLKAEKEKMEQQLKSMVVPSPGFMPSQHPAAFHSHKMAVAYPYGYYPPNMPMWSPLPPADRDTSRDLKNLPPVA

## AGAAGAGACGGC (double strand) [DBE1]
MBP
  binding result: no binding

## AGAATTTTCGGA / GCCGAAAATTCT [DBE1 m5]
[1]
  binding result: no binding

The exact form of at least one protein or probe is not confirmed. A negative result means that nothing was seen under these conditions. For some assays here: Tags and fusion partners may be left off the protein sequences shown.
